# Reference: paper PMC7819943, “Rice protein-binding microarrays: a tool to detect cis-acting elements near promoter regions in rice”
# Sequences of proteins named here, by UniProt entry; tags and fusion partners are left off.
# UniProt Q0JBA9, entry or part of it: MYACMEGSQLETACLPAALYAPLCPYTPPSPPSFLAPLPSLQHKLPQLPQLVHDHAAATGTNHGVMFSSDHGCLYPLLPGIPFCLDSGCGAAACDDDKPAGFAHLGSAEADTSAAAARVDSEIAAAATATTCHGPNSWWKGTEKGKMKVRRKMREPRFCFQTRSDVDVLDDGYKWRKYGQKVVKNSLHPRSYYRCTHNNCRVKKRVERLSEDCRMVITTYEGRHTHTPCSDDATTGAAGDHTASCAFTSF
# This is one part of the list.
# Target: OsWRKY34 (Oryza sativa, UniProt Q0JBA9 1-250)
# Experiment: protein-binding microarray (RPBM); PBS, 2% BSA, 51.3 ng/ul salmon testes DNA, 50 uM zinc acetate, 200 nM TF, 25 C, 1 h; high values mean tight binding
# Conditions: protein: recombinant; tags: N-terminal polyhistidine and DsRed monomer fusion (pET32a); label: CyDye5-dUTP incorporated in the synthesized complementary strand; 3' TTTTT single-stranded linker to array surface; dsDNA, one strand shown
# Procedure, shortened: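 A custom Agilent array was converted to double-stranded form by primer extension with Cy5-dUTP and blocked with 2% BSA. Protein at 200 nM in PBS with 2% BSA, salmon testes DNA and 50 µM zinc acetate was applied for 1 h at 25 °C, followed by washing. The proteins were polyhistidine–DsRed N-terminal fusions of transcription factors, expressed in E. coli BL21-CodonPlus and Ni–NTA-purified. The binding signal is per-feature fluorescence intensity (arbitrary units) from an Axon 4000B scanner.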
row,Sequence,binding signal
1,GGCTAGATTTTCGCGATTTTTTTTAGTTTCGATCCCGGTTCGGAGTCACCTAGTGCAG,10900 fluorescence intensity (a.u.)
2,GGCCTCATTCTGGGATCGTTTTATGGTGGGGTTATCGTTACGGAGTCACCTAGTGCAG,20600 fluorescence intensity (a.u.)
3,AGGTTTTGGTTTGGTCTTTTTTGTGAACAGCCATGTCGTCCGGAGTCACCTAGTGCAG,9310 fluorescence intensity (a.u.)
4,TGCTGCTGGTTACTTGTATTAATACATTATAGAAAATGAGCGGAGTCACCTAGTGCAG,8070 fluorescence intensity (a.u.)
5,CTCCAAGCTTTTTCCCCTTTGCAGTTGTGCCCTTATCATCCGGAGTCACCTAGTGCAG,13800 fluorescence intensity (a.u.)
6,TTGCTATTGCCGTCTTGTCTACTGTTATAGCATTGATTATCGGAGTCACCTAGTGCAG,9520 fluorescence intensity (a.u.)
7,ACAATTGAAGCAAACTAACAACATCCGATCAGTTTTCGTCCGGAGTCACCTAGTGCAG,8590 fluorescence intensity (a.u.)
8,CCGCTCCGCTCCGTCGGCTGCTGTACCAGCCATCACTGCTCGGAGTCACCTAGTGCAG,9000 fluorescence intensity (a.u.)
9,ACCCTTACATTACTTCCTTAAACCATTAACATCTGAATTCCGGAGTCACCTAGTGCAG,11100 fluorescence intensity (a.u.)
10,ACCGCTTTTGAACCGTCAGCGTTGCCGCATTCGCACCGTCCGGAGTCACCTAGTGCAG,8190 fluorescence intensity (a.u.)
11,AGGTTTTAGTAGTCTCTTTTTTTTGGGTTGCGTGCATTTTCGGAGTCACCTAGTGCAG,10200 fluorescence intensity (a.u.)
12,TAACTTTTTTTTACATGTATTTTTCTTAACTTGGACATAACGGAGTCACCTAGTGCAG,11200 fluorescence intensity (a.u.)
13,TCAATTCCTATATTTTTTCTATTCCTGTGTTTTTCCTATCCGGAGTCACCTAGTGCAG,8090 fluorescence intensity (a.u.)
14,ATTTTGCTCGTTAGCTTGTACATACGCAACTTAATTATCTCGGAGTCACCTAGTGCAG,8620 fluorescence intensity (a.u.)
15,CATTTCGTTGATCCCACTCATATCGCAGCTGCTCTAGCAACGGAGTCACCTAGTGCAG,8330 fluorescence intensity (a.u.)
16,GCGGCAATCATCTAACCGTCCATCCCGTGATCGAGCGCATCGGAGTCACCTAGTGCAG,10100 fluorescence intensity (a.u.)
17,CCCCGGTTGGCCACTACTTTTGCGATTTTCCATAAAAATACGGAGTCACCTAGTGCAG,8560 fluorescence intensity (a.u.)
18,ATTTCTTTCCATCCATAATTACTAGGCTGCATTGCCTCTTCGGAGTCACCTAGTGCAG,8720 fluorescence intensity (a.u.)
19,GTCGATTTGGGACGCGACATTTTCTTACTCCCTGAGATCTCGGAGTCACCTAGTGCAG,10400 fluorescence intensity (a.u.)
20,ACCCCACATGTCAGTACCAAAGGTTCACCCATTCTCCGTACGGAGTCACCTAGTGCAG,9020 fluorescence intensity (a.u.)
21,CTTGCGATCACCCTCTCACCACCGCTACAGATCACCATTGCGGAGTCACCTAGTGCAG,9510 fluorescence intensity (a.u.)

row,Sequence,binding signal
1,ATCATGTCTTTCAGTCACCAATTTGTCACTAGTGGGCCCACGGAGTCACCTAGTGCAG,8130 fluorescence intensity (a.u.)
2,CTCTCTCCACCCTCAGCCGCCACACTCCCATCCATTCTCCCGGAGTCACCTAGTGCAG,9060 fluorescence intensity (a.u.)
3,GCTGTCTCGCACTCGCCGCCGCCGCCGTCGCCGCGCCTCTCGGAGTCACCTAGTGCAG,8340 fluorescence intensity (a.u.)
4,ACACCACCACTAGGTTCTTTTTCATTGTATGTAGGAAGCACGGAGTCACCTAGTGCAG,8550 fluorescence intensity (a.u.)
5,CTCGTGTCCTATTTTTACCGTTTATACAACTATTAACTTACGGAGTCACCTAGTGCAG,11300 fluorescence intensity (a.u.)
6,TTCAATTTCTTGATGTGTAAGTACTACTACTTGAATTATTCGGAGTCACCTAGTGCAG,8240 fluorescence intensity (a.u.)
7,GGTATTTATAGACTCGGTTTTTACATGTACATGAAACCCTCGGAGTCACCTAGTGCAG,9170 fluorescence intensity (a.u.)
8,TCCAGGCAGTTCTACCTCGATTACTTTATGCTGCTGCACCCGGAGTCACCTAGTGCAG,9590 fluorescence intensity (a.u.)
9,GTCTCTCTTCTCTCTCTCTCTCTCTCTCTCTCTCTCGTCTCGGAGTCACCTAGTGCAG,8040 fluorescence intensity (a.u.)
10,GTAGTTCGAGTTTAAATTTTTTTGTGGTTGGTTGTATCGTCGGAGTCACCTAGTGCAG,8720 fluorescence intensity (a.u.)
11,CTGTTACTCTATGTGGTTTGAGCAGTGTCGTCTGTTCATACGGAGTCACCTAGTGCAG,12900 fluorescence intensity (a.u.)
12,CTCTAGCCTCTCGCGAACCTCTCGATCTTCTCGCCGCCATCGGAGTCACCTAGTGCAG,10100 fluorescence intensity (a.u.)
13,GATTCGGTAGTGGGCCTAGGCCTGGGCATGGAGGGTGGGCCGGAGTCACCTAGTGCAG,10900 fluorescence intensity (a.u.)
14,TCCTGTCTATGTTTCTCTCTCTCCATAGCACTTACTCTTTCGGAGTCACCTAGTGCAG,13400 fluorescence intensity (a.u.)
15,AAACACATTCACATTCTCTCTCTCTCTCTCTCTCTCTCCTCGGAGTCACCTAGTGCAG,8420 fluorescence intensity (a.u.)
16,AATATCCATTCTCACGAGCTGTTTGTTGTAGCTTTCTGTACGGAGTCACCTAGTGCAG,11400 fluorescence intensity (a.u.)
17,GATATAATGCGGTCAGAGTTCAGGACTTGACCAAGTTCGTCGGAGTCACCTAGTGCAG,8330 fluorescence intensity (a.u.)
18,ATCTTCTATTCACGGCTTGCCATCTGTGCACTGTAATTTTCGGAGTCACCTAGTGCAG,9850 fluorescence intensity (a.u.)
19,TTCTTTTTTGGACGCCATCATCATCAACATTGCCGCTGCACGGAGTCACCTAGTGCAG,11600 fluorescence intensity (a.u.)
20,AGTCCCACCACGCCACGAGAAATTTCTACGCCCATGTCAGCGGAGTCACCTAGTGCAG,8030 fluorescence intensity (a.u.)
21,CTCCGCGATCACCAAATCCGCCGTCGCACCGTCTCCACTCCGGAGTCACCTAGTGCAG,9870 fluorescence intensity (a.u.)

# Some of the entries above, reformatted:
row | Sequence | binding signal
6 | TTCAATTTCTTGATGTGTAAGTACTACTACTTGAATTATTCGGAGTCACCTAGTGCAG | 8240 fluorescence intensity (a.u.)
7 | GGTATTTATAGACTCGGTTTTTACATGTACATGAAACCCTCGGAGTCACCTAGTGCAG | 9170 fluorescence intensity (a.u.)
21 | CTCCGCGATCACCAAATCCGCCGTCGCACCGTCTCCACTCCGGAGTCACCTAGTGCAG | 9870 fluorescence intensity (a.u.)
